Assay [1] concerns the target T1, PDZ domain of GIPC/synectin displayed on T7 phage (UniProt O14908).
T1 sequence (looked up): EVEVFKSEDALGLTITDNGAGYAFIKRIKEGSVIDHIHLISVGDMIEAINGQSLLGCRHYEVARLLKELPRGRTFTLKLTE
As to the kind of experiment: phage ELISA.

For assay [2], the target named is T1, PDZ domain of GIPC/synectin displayed on T7 phage. The assay is described as follows: phage binding assay (ELISA), N-terminal biotinylated peptide, GIPC-PDZ T7 phage. In general terms: In an ELISA, binding on a coated surface is turned into a signal by an enzyme label.

Results are given in words; binding and its absence hold for the method and conditions named. Some results given as binding are weak or reduced against the parent protein; the word gives no strength.

B1: N-terminal biotinylated blocking peptide PSQSSSEA (SEQ ID NO: 3) (from GAIP) (peptide)
peptide: PSQSSSEA
modifications: N-terminal biotin
As to B1, the binding result in assay [1] and in assay [2] was “binds” in each case.

The values above are taken from US20120040915A1 (MAYO FOUNDATION FOR MEDICAL EDUCATION AND RESEARCH, published 2012).
